{"sequences": {"note": "Amino acid sequences for entries named in this document (tags omitted). A change or cut given only in a name is not applied to a line headed by its entry.", "UniProt P61244": "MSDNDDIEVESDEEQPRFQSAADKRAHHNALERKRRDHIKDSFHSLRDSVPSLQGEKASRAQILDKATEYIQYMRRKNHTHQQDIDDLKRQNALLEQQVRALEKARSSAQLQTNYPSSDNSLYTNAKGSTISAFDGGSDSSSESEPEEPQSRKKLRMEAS"}, "source": "paper doi:10.1101/2020.05.04.076190", "biological_target": "Max bHLH-LZ (p21 isoform) (UniProt P61244)", "test": "EMSA", "settings": "Max only at 2 uM, 6-fold excess unlabeled non-specific competitor", "note": "Construct, isoform or probe ends are uncertain for at least one entry. At least one verdict was read from the data and is not stated in words by the source."}
{"sequence": "GCGCGGGCACGTGGGCCGGGG (double strand) [CACGTG E-box probe]", "values": [{"measurement": "binding result", "result": "binds"}]}
